Source: patent publication US20180087053
For at least one entry, the source does not settle the construct or the ends of the probe. At least one result comes from cells or an extract, where the contact may be indirect.

By UniProt entry, the sequences of proteins in these tests, tags left out. Residues count along the entry.
UniProt P38646, 47-679: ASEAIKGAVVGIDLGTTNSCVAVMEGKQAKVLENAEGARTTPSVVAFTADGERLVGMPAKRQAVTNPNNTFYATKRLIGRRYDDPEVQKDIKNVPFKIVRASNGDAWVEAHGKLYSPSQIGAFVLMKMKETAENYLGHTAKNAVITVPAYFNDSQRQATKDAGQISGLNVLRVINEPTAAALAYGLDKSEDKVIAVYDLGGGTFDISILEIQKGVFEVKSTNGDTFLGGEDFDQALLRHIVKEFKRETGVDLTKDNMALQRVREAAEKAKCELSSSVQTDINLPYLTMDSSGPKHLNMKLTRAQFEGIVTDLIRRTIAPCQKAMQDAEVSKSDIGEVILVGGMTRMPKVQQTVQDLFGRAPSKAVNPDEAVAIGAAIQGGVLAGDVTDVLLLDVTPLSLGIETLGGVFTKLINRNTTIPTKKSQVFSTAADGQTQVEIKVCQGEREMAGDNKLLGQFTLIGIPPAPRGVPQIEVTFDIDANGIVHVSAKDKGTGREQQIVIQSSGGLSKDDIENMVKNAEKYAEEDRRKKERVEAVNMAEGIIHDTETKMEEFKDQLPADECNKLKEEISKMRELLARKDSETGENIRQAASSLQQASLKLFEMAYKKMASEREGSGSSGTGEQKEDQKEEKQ

Biological target: mortalin (mitochondrial Hsp70) from PANC-1 membrane protein extract (Homo sapiens) (UniProt P38646)
Assay: pull-down
Settings: 2'-F pyrimidines; 3'-biotin aptamer; band about 75 kDa identified by Q-TOF MS; protein in an extract; protein details: endogenous; label: Cy3 (flow) or 3'-biotin (SPR, pulldown)

Row | Sequence | binding result
1 | GGGAGACAAGAAUAAACGCUCAAUGCGCUGAAUGCCCAGCCGUGAAAGCGUCGAUUUCCAUCCUUCGACAGGAGGCUCACAACAGGC [P1] | binds
2 | GGGAGACAAGAAUAAACGCUCAAUGGCGAAUGCCCGCCUAAUAGGGCGUUAUGACUUGUUGAGUUCGACAGGAGGCUCACAACAGGC [P19] | binds
